Laboratory results published in publication PMC4471197.
No constants are given. Whether binding was seen depends on the method and setting. For part of these data: Binding seen in cells or lysates may run through a third protein. Some entries that bind do so weakly or less than the wild type.

The chains behind the UniProt entries cited, without tags or fusion partners.
UniProt P10218: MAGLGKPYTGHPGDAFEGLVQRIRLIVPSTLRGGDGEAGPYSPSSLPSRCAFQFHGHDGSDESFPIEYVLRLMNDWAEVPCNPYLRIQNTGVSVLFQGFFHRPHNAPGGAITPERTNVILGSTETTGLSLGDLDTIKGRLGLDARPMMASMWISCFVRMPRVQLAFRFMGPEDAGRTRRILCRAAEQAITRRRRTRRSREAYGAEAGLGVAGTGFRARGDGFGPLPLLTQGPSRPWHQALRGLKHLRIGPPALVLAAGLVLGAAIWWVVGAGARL
UniProt O00629: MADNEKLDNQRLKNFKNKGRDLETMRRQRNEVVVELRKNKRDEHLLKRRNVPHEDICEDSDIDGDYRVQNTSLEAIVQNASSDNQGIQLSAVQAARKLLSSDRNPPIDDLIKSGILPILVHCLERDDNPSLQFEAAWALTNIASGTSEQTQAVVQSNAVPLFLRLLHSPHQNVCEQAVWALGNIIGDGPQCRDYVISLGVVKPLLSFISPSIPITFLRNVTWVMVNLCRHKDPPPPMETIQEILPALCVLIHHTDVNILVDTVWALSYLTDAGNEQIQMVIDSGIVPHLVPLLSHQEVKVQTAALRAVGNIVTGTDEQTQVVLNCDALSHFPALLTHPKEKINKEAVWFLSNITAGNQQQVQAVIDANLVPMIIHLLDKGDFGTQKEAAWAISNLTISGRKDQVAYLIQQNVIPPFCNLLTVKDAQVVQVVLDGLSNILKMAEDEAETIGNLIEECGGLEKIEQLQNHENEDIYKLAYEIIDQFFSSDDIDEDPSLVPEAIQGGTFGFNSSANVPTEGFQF
UniProt O15131: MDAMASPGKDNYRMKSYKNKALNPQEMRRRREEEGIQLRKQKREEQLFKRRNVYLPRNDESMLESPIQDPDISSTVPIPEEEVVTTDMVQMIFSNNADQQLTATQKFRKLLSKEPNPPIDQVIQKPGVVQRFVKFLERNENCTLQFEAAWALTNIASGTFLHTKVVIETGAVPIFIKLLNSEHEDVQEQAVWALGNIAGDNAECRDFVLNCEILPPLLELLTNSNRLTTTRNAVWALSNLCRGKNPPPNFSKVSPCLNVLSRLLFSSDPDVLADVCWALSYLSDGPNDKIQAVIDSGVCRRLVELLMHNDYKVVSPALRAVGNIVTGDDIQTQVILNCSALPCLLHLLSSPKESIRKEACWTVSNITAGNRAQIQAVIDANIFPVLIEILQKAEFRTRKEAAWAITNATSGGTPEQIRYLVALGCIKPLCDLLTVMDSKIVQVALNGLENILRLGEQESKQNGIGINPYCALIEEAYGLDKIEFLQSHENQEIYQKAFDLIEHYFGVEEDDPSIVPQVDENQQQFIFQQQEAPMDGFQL
UniProt P10215: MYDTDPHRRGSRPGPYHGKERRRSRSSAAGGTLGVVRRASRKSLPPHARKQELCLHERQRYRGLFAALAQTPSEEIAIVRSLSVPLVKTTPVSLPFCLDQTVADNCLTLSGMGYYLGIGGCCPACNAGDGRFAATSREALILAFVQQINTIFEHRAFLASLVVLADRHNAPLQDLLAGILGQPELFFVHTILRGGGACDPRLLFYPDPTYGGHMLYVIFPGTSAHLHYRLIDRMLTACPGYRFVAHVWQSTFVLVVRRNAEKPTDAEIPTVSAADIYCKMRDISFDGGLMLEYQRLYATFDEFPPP

Legend:
[1] = target: HSV-1 pUL34 (yeast two-hybrid construct) (Herpes simplex virus type 1 (HSV-1), strain 17+) (UniProt P10218); assay: two-hybrid; yeast two-hybrid, HIS3 reporter gene activation; bait and prey not told
[2] = target: importin α KPNA4 (yeast two-hybrid construct) (UniProt O00629); assay: as above
[3] = target: importin α KPNA5 (yeast two-hybrid construct) (UniProt O15131); assay: as above
[4] = target: MBP-pUL34 (Herpes simplex virus type 1 (HSV-1), strain 17+) (UniProt P10218); assay: pull-down; co-affinity purification on Amylose resin from lysates of HeLa cells co-transfected with MBP-pUL34 and myc-pUL31 or myc-pUL31ΔN, 24 hpt; lysis buffer 20 mM Tris-HCl pH8, 150 mM NaCl, 10% glycerol, 0.5% Triton X-100, 2 mM EDTA; 1 hour at 4°C; Western blot with anti-MBP and anti-myc
[5] = target: importin α KPNA4 (LUMIER construct) (UniProt O00629); assay: LUMIER assay; LUMIER assay as described previously (refs 59, 60); format not told here
[6] = target: importin α KPNA5 (LUMIER construct) (UniProt O15131); assay: as above

## HSV-1 pUL31 (yeast two-hybrid construct) (from UniProt P10215 1-306)
[1]
  binding: binds
[2]
  binding: binds
[3]
  binding: binds

## myc-pUL31 (from UniProt P10215 1-306)
[4]
  binding: binds

## HSV-1 pUL31 (LUMIER construct) (from UniProt P10215 1-306)
[5]
  binding: binds
[6]
  binding: binds
